Test results from the supplement of paper PMC10338343.
± gives the standard deviation. Only a part is listed here, and it is no random draw. The uncertainty is large for many entries.

What follows are sequences tested on MIWI (PIWIL1) piRISC loaded with piRNA #1 (30 nt) (assay: pre-steady-state target cleavage rate (min^-1); MIWI and MILI are mouse PIWI proteins and EfPiwi is from a freshwater sponge; tags in brackets are library labels; higher = faster piRNA-guided slicing of the target). Settings: guide: piRNA #1 5'p-UGAGGUAGUAGGUUGUAUAGUAUCCAGAGG; auxiliary factor: 500 nM mouse GTSF1.
Outline: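 At 33 °C in HEPES–potassium acetate buffer, a transcribed, DNA-blocked target RNA library […] was exposed for 0–8 or 0–960 min to 1 nM active affinity-purified piRISC carrying a single synthetic guide, with or without 500 nM GTSF1 partner protein. Uncleaved targets were sequenced and normalised to depth and to weakly complementary targets. With three trials pooled and k3 capped at 0.0001 min^-1, a burst-and-steady-state fit produced the pre-steady-state cleavage rate.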
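Further: 1 nM active piRISC with 0.1 nM target library at 33 °C single turnover.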

| Sequence | pre-steady-state target cleavage rate |
| --- | --- |
| GGUCUGGAUACUAUACAACCUACAACCUGA | 0.00204 ± 0.0042 |
| CCUAUGGAUACUAUACAACCUACUACCUCA | 2.15 ± 0.12 |
| GGAGACCUAUGAUAACAAGCCUACUACCUCA | 0.000305 ± 0.018 |
| GCUCUGGCAUACUAUACAACCUACUACCUCA | 2.17 ± 0.12 |
| GCUCUGCAUACUAUACAACCUACUACCUCA | 1.96 ± 0.11 |
| GGACUGGAUACUAUACAACCUACAACGUCA | 0.00117 ± 0.004 |
| GGAGACCUAUGAUAACAACCUACUCCUCA | 0.000142 ± 0.012 |
| CCUCUCGAUACAAUACAACCUACUACCUCA | 2.17 ± 0.14 |
| GGUCUGAUACUAUACAACCUACUACCUCA | 1.79 ± 0.1 |
| GGACUGGAAACUAUAGAACCUACUACCUCA | 1.13 ± 0.08 |
| CCUCUGGAUACUAUACAACCUACUACCUCU [g2:g30:cont:t1U] | 2.36 ± 0.14 |
| GCUCUGGCUACUAUACAACCUACUACCUCA | 1.93 ± 0.099 |
| GGACUGGAUACUAUACAACCUUACUACCUCA | 0.00316 ± 0.0039 |
| GGAGACCUAUGUUUAGAACCUACUACCUCA | 0.000195 ± 0.014 |
| GGAGUGGAUACUAUACCAACCUACUACCUCA | 0.0192 ± 0.0054 |

Reformatted with bars between the fields: part of the list above
Sequence | pre-steady-state target cleavage rate
CCUCUGGAUACUAUACAACCUACUACCUCU [g2:g30:cont:t1U] | 2.36 ± 0.14
GCUCUGGCUACUAUACAACCUACUACCUCA | 1.93 ± 0.099
